According to paper PMC12748351, “The TDG protein environment connects active DNA demethylation with chromatin and RNA biology”:
No constants are given. Whether binding was seen depends on the method and setting. Binding seen in cells or lysates may run through a third protein. A yes stands for co-enrichment or nearness to the bait. Other partners may have been found.

By UniProt entry, the sequences of proteins in these tests, tags left out. Where a name states a change or a piece, a line headed by the entry shows the natural chain unless it says otherwise.
UniProt P56581: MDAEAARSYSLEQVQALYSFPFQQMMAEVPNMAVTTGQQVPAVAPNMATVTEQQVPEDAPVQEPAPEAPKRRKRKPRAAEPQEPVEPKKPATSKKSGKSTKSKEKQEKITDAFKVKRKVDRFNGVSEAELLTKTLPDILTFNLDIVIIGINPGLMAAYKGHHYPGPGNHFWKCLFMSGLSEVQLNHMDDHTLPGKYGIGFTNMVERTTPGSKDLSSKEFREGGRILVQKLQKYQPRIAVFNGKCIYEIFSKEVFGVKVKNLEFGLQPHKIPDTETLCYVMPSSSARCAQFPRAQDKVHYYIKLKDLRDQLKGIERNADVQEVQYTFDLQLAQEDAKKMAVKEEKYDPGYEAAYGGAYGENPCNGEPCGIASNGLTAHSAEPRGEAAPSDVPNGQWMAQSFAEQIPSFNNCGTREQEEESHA
UniProt Q16594: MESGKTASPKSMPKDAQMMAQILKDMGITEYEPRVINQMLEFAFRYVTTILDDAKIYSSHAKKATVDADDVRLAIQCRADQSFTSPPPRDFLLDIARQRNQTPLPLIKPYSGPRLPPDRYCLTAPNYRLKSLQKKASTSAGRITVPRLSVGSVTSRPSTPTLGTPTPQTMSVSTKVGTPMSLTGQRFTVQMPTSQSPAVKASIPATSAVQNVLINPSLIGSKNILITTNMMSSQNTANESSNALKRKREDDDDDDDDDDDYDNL
UniProt O88491: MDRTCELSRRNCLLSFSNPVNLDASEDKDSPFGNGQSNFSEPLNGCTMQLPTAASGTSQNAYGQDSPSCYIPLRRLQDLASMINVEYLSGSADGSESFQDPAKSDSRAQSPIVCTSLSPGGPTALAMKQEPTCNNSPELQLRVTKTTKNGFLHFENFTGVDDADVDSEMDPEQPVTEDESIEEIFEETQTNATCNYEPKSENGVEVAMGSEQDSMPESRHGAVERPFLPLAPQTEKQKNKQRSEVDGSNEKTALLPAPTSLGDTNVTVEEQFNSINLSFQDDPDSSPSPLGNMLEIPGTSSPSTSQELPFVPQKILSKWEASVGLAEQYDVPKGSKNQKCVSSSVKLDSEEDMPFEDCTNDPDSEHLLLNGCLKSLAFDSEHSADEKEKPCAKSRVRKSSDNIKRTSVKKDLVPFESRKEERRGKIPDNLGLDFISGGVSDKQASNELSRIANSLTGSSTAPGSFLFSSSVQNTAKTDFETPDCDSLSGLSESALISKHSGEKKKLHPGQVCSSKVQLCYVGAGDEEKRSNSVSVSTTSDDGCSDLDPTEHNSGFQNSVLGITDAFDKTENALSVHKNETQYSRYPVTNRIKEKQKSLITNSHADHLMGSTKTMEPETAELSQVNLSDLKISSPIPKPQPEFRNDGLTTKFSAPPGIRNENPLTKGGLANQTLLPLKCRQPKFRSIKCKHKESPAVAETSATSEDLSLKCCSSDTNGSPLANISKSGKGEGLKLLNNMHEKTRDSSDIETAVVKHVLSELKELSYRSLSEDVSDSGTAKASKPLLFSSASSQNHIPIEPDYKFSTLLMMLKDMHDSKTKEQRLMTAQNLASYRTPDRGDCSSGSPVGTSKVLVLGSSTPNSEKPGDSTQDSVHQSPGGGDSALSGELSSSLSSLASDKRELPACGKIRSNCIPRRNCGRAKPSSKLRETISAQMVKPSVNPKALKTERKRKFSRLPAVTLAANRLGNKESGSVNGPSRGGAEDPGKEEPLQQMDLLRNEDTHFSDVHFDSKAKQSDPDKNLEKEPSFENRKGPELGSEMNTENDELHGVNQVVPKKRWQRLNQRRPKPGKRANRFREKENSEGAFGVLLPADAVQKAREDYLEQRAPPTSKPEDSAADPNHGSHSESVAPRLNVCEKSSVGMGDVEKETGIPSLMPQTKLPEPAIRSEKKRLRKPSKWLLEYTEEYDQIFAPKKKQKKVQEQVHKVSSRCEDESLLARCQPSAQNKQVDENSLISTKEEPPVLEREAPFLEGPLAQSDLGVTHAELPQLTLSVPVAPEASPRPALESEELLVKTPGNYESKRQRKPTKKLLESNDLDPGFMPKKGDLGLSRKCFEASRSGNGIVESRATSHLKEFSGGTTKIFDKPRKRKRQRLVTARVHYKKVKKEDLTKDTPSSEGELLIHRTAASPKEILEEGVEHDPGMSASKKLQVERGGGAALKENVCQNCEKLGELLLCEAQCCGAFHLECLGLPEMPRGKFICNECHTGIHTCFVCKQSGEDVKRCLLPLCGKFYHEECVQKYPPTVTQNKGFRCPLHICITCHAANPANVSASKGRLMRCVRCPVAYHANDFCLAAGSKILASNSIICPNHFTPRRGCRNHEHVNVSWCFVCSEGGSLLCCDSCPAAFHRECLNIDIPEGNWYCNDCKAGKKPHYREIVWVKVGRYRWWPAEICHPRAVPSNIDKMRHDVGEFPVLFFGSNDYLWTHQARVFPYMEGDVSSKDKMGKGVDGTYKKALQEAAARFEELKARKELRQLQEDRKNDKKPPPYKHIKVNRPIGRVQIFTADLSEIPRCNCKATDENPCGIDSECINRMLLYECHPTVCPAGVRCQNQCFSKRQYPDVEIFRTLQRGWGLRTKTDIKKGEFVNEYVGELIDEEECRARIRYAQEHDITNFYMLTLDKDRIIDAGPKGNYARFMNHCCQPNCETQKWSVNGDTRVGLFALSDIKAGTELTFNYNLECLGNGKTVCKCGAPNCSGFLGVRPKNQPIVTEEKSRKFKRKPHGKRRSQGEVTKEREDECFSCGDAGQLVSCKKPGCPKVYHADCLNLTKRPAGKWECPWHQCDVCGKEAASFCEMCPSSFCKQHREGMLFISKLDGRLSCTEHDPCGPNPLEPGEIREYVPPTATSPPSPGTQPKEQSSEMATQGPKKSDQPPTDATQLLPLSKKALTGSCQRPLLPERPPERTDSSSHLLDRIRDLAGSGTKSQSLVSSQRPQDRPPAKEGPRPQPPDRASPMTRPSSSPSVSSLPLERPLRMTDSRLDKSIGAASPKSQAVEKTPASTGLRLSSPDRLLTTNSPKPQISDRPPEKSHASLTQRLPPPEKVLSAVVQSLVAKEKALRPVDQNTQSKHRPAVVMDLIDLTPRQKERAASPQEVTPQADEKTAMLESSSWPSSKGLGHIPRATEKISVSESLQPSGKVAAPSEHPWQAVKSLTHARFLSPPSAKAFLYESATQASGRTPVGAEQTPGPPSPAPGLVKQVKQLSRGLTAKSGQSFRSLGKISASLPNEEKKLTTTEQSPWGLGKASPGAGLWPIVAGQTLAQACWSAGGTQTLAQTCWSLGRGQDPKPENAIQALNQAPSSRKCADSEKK
UniProt Q6P5D8: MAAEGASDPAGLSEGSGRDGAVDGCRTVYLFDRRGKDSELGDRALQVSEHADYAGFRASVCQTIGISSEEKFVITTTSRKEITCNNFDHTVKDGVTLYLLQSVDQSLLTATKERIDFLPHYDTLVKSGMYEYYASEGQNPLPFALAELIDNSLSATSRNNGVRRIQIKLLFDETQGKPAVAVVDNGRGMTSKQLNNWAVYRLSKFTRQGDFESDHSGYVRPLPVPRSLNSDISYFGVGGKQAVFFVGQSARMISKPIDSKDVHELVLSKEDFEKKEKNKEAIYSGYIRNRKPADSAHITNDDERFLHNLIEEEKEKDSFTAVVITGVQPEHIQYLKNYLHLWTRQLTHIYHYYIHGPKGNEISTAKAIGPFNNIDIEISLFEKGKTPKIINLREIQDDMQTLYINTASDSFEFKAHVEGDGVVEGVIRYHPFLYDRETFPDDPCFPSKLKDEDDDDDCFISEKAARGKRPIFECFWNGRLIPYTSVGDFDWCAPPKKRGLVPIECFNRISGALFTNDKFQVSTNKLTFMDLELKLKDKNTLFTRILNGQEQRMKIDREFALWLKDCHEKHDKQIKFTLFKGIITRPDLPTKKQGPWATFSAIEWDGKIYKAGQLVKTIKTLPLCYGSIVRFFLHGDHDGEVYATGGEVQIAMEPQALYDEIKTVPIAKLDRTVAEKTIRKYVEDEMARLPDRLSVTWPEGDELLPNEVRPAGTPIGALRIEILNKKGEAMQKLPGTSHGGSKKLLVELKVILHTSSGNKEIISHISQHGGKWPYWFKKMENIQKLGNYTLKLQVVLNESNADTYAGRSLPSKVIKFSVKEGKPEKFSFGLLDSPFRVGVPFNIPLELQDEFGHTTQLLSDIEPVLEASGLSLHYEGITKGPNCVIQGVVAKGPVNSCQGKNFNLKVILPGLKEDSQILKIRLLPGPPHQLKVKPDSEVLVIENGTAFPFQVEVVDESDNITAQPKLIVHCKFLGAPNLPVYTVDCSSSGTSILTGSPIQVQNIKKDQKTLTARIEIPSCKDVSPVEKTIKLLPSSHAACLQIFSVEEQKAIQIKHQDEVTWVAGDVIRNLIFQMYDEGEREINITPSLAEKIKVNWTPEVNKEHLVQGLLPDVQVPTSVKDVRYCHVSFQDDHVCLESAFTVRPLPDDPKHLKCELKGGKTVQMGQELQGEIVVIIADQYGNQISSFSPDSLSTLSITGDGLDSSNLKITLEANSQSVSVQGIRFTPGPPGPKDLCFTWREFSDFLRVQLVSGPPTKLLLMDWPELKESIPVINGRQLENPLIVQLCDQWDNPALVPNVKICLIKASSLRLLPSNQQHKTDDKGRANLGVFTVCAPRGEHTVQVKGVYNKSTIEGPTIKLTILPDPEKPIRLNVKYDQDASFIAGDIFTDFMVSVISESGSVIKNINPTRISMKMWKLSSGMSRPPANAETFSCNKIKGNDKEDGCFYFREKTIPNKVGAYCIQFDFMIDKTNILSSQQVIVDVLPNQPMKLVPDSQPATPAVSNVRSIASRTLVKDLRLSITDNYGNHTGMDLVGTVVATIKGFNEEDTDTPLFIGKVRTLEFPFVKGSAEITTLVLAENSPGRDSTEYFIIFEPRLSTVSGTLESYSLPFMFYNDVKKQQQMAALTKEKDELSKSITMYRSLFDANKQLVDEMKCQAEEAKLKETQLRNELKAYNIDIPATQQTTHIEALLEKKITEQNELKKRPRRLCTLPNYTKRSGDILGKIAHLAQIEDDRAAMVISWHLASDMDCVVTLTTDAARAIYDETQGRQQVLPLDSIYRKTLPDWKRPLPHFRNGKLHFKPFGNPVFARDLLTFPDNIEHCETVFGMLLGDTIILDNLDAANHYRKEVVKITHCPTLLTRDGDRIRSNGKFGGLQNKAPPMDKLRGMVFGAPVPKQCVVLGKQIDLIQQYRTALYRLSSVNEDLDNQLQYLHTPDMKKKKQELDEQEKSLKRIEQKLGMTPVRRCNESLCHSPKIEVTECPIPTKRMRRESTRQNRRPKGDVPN
UniProt Q9UL46: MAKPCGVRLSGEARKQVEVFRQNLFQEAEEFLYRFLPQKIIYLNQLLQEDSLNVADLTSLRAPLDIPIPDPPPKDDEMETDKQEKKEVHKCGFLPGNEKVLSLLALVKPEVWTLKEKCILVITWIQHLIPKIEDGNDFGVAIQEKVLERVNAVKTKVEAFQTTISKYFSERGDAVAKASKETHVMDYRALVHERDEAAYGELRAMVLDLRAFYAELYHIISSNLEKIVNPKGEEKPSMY
UniProt P28352: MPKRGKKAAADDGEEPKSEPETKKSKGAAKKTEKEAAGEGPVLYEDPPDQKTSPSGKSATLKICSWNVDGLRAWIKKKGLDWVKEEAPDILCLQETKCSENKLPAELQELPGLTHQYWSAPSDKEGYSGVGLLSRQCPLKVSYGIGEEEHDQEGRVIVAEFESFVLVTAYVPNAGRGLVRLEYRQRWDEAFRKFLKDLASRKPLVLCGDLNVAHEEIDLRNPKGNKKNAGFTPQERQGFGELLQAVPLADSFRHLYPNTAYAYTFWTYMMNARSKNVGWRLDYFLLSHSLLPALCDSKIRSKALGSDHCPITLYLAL
UniProt P28070: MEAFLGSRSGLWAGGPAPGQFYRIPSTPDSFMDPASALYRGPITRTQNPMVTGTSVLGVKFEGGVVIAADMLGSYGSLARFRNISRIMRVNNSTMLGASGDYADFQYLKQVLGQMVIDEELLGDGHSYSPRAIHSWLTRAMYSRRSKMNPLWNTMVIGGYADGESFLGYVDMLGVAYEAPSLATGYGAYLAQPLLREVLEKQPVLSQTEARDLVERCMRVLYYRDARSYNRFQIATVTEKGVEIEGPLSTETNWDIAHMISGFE
UniProt Q9WTM5: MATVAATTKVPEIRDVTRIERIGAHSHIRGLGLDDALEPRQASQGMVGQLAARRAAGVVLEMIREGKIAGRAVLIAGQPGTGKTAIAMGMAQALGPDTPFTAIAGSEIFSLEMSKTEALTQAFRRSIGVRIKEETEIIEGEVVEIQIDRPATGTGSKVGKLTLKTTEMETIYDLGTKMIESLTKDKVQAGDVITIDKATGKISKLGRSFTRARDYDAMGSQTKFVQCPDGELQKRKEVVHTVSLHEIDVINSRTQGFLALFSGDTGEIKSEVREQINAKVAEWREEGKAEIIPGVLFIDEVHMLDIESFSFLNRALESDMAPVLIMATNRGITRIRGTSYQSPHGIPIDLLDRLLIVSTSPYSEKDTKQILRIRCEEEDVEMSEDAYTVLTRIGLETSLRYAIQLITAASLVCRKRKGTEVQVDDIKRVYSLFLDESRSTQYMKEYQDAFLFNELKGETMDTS

Key:
[1] = biological target: TDG-BirA* fusion protein, HA-tagged (pCMV-mTDGa-BioID2-HA), expressed in HEK293T (murine) (UniProt P56581); assay: proximity labelling; BioID2-MS in Tdg-/- HEK293T transiently expressing TDG-BirA*; 50 µM biotin for 24 h; whole-cell lysis in 8 M urea, streptavidin beads, LC-MS; enriched over NLS-BirA*, H4-BirA*, no BirA* and no biotin controls (log2FC > 1, q-value < 0.1)
[2] = biological target: TDG-BirA* fusion protein, HA-tagged (pPgk-mTDGa-BioID2-HA), stably expressed in mESC (murine) (UniProt P56581); assay: proximity labelling; BioID2-MS in mESC stably expressing TDG-BirA*; 60 µM biotin for 48 h; nuclear fraction; approach B: high-salt extraction with Benzonase, streptavidin beads washed with SDS and high-salt buffers; enriched over NLS-BirA* and no-BirA* (nucleolar proteins: over no-BirA* only)
[3] = biological target: TDG-BirA* fusion protein, HA-tagged (pPgk-mTDGa-BioID2-HA), stably expressed in mESC (murine) (UniProt P56581); assay: proximity labelling; BioID2-MS in mESC stably expressing TDG-BirA*; 60 µM biotin for 48 h; nuclear fraction; approach A: lysis and streptavidin purification in denaturing urea buffers; enriched over NLS-BirA* and no-BirA* (nucleolar proteins: over no-BirA* only)
[4] = biological target: TDG-BirA* fusion protein, HA-tagged (pPgk-mTDGa-BioID2-HA), stably expressed in mESC (murine) (UniProt P56581); assay: proximity labelling; BioID2-MS in mESC stably expressing TDG-BirA*; nuclear fraction; approach A or B is not told for these hits
[5] = biological target: TDG-BirA* fusion protein, HA-tagged (pPgk-mTDGa-BioID2-HA), stably expressed in mESC (murine) (UniProt P56581); assay: as above; remark: listed apart in the source

Molecule: TAF9 (from UniProt Q16594 1-264)
- binding [1]: binds

Molecule: NSD1 (endogenous in mESC) (from UniProt O88491 1-2588) (enzyme)
- binding [2]: binds
- binding [3]: binds

Molecule: NCL (from UniProt P09405 1-707)
- binding [2]: binds
- binding [3]: binds

Molecule: TET1 (from UniProt Q3URK3 1-2039) (enzyme)
- binding [2]: binds

Molecule: BRD8 (from UniProt Q9H0E9 1-1235)
- binding [1]: binds

Molecule: SMCHD1 (from UniProt Q6P5D8 1-2007)
- binding [2]: binds
- binding [3]: binds

Molecule: PSME2 (from UniProt Q9UL46 1-239)
- binding [1]: binds

Molecule: TAF4 (from UniProt O00268 1-1085)
- binding [1]: binds

Molecule: AP-endonuclease 1 (from UniProt P28352 1-317) (enzyme)
- binding [3]: binds

Molecule: RUVBL1 (endogenous in mESC) (from UniProt P60122 1-456)
- binding [4]: binds

Molecule: EHMT2 (from UniProt Q96KQ7 1-1210) (enzyme)
- binding [1]: binds

Molecule: FUS (from UniProt P35637 1-526)
- binding [1]: binds

Molecule: PSMB4 (from UniProt P28070)
- binding [1]: binds

Molecule: NSD1 (endogenous in HEK293T) (from UniProt Q96L73 1-2696) (enzyme)
- binding [1]: binds

Molecule: SMARCA4 (from UniProt Q3TKT4 1-1613)
- binding [4]: binds

Molecule: PSME1 (from UniProt Q06323 1-249)
- binding [1]: binds

Molecule: RUVBL2 (endogenous in mESC) (from UniProt Q9WTM5 1-463)
- binding [4]: binds

B1: ZMYM2 (protein, UniProt Q9UBW7 1-1377)
chain: MDTSSVGGLELTDQTPVLLGSTAMATSLTNVGNSFSGPANPLVSRSNKFQNSSVEDDDDVVFIEPVQPPPPSVPVVADQRTITFTSSKNEELQGNDSKITPSSKELASQKGSVSETIVIDDEEDMETNQGQEKNSSNFIERRPPETKNRTNDVDFSTSSFSRSKVNAGMGNSGITTEPDSEIQIANVTTLETGVSSVNDGQLENTDGRDMNLMITHVTSLQNTNLGDVSNGLQSSNFGVNIQTYTPSLTSQTKTGVGPFNPGRMNVAGDVFQNGESATHHNPDSWISQSASFPRNQKQPGVDSLSPVASLPKQIFQPSVQQQPTKPVKVTCANCKKPLQKGQTAYQRKGSAHLFCSTTCLSSFSHKPAPKKLCVMCKKDITTMKGTIVAQVDSSESFQEFCSTSCLSLYEDKQNPTKGALNKSRCTICGKLTEIRHEVSFKNMTHKLCSDHCFNRYRMANGLIMNCCEQCGEYLPSKGAGNNVLVIDGQQKRFCCQSCVSEYKQVGSHPSFLKEVRDHMQDSFLMQPEKYGKLTTCTGCRTQCRFFDMTQCIGPNGYMEPYCSTACMNSHKTKYAKSQSLGIICHFCKRNSLPQYQATMPDGKLYNFCNSSCVAKFQALSMQSSPNGQFVAPSDIQLKCNYCKNSFCSKPEILEWENKVHQFCSKTCSDDYKKLHCIVTYCEYCQEEKTLHETVNFSGVKRPFCSEGCKLLYKQDFARRLGLRCVTCNYCSQLCKKGATKELDGVVRDFCSEDCCKKFQDWYYKAARCDCCKSQGTLKERVQWRGEMKHFCDQHCLLRFYCQQNEPNMTTQKGPENLHYDQGCQTSRTKMTGSAPPPSPTPNKEMKNKAVLCKPLTMTKATYCKPHMQTKSCQTDDTWRTEYVPVPIPVPVYIPVPMHMYSQNIPVPTTVPVPVPVPVFLPAPLDSSEKIPAAIEELKSKVSSDALDTELLTMTDMMSEDEGKTETTNINSVIIETDIIGSDLLKNSDPETQSSMPDVPYEPDLDIEIDFPRAAEELDMENEFLLPPVFGEEYEEQPRPRSKKKGAKRKAVSGYQSHDDSSDNSECSFPFKYTYGVNAWKHWVKTRQLDEDLLVLDELKSSKSVKLKEDLLSHTTAELNYGLAHFVNEIRRPNGENYAPDSIYYLCLGIQEYLCGSNRKDNIFIDPGYQTFEQELNKILRSWQPSILPDGSIFSRVEEDYLWRIKQLGSHSPVALLNTLFYFNTKYFGLKTVEQHLRLSFGTVFRHWKKNPLTMENKACLRYQVSSLCGTDNEDKITTGKRKHEDDEPVFEQIENTANPSRCPVKMFECYLSKSPQNLNQRMDVFYLQPECSSSTDSPVWYTSTSLDRNTLENMLVRVLLVKDIYDKDNYELDEDTD
- binding [1]: binds

B2: ARID3A (protein, UniProt Q99856 1-593)
chain: MKLQAVMETLLQRQQRARQELEARQQLPPDPPAAPPGRARAAPDEDREPESARMQRAQMAALAAMRAAAAGLGHPASPGGSEDGPPGSEEEDAAREGTPGSPGRGREGPGEEHFEDMASDEDMKPKWEEEEMEEDLGEDEEEEEEDYEDEEEEEDEEGLGPPGPASLGTTALFPRKAQPPQAFRGDGVPRVLGGQERPGPGPAHPGGAAHVAPQLQPPDHGDWTYEEQFKQLYELDGDPKRKEFLDDLFSFMQKRGTPVNRIPIMAKQVLDLFMLYVLVTEKGGLVEVINKKLWREITKGLNLPTSITSAAFTLRTQYMKYLYPYECEKRGLSNPNELQAAIDSNRREGRRQSFGGSLFAYSPGGAHGMLSSPKLPVSSLGLAASTNGSSITPAPKIKKEEDSAIPITVPGRLPVSLAGHPVVAAQAAAVQAAAAQAAVAAQAAALEQLREKLESAEPPEKKMALVADEQQRLMQRALQQNFLAMAAQLPMSIRINSQASESRQDSAVNLTGTNGSNSISMSVEINGIMYTGVLFAQPPAPTPTSAPNKGGGGGGGSSSNAGGRGGNTGTSGGQAGPAGLSTPSTSTSNNSLP
- binding [1]: binds

B3: NONO (protein, UniProt Q99K48 1-473)
chain: MQSNKAFNLEKQNHTPRKHHQHHHQQHHQQQQQQQQQQPPPPIPANGQQASSQNEGLTIDLKNFRKPGEKTFTQRSRLFVGNLPPDITEEEMRKLFEKYGKAGEVFIHKDKGFGFIRLETRTLAEIAKVELDNMPLRGKQLRVRFACHSASLTVRNLPQYVSNELLEEAFSVFGQVERAVVIVDDRGRPSGKGIVEFSGKPAARKALDRCSEGSFLLTTFPRPVTVEPMDQLDDEEGLPEKLVIKNQQFHKEREQPPRFAQPGSFEYEYAMRWKALIEMEKQQQDQVDRNIKEAREKLEMEMEAARHEHQVMLMRQDLMRRQEELRRMEELHNQEVQKRKQLELRQEEERRRREEEMRRQQEEMMRRQQEGFKGTFPDAREQEIRMGQMAMGGAMGINNRGAMPPAPVPPGTPAPPGPATMMPDGTLGLTPPTTERFGQAATMEGIGAIGGTPPAFNRPAPGAEFAPNKRRRY
- binding [5]: binds

B4: DDX21 (enzyme, UniProt Q9JIK5 1-851)
chain: MPGKLRSGAKLGSDGAEESMETLPKPSEKKTRKEKTKSKTEEATEGMEEAVSSKAKKTNKKGPSEDDVDPPKSRKAKKQEEEPQDDTASTSKTSKKKKEPLEKQADSETKEIITEEPSEEEADMPKPKKMKKGKEANGDAGEKSPKLKNGLSQPSEEEADIPKPKKMKKGKEANGDAGEKSPKLKNGLSQPSEEEVDIPKPKKMKKGKEASGDAGEKSPRLKDGLSQPSEPKSNSSDAPGEESSSETEKEIPVEQKEGAFSNFPISEETVKLLKARGVNFLFPIQAKTFHHVYSGKDLIAQARTGTGKTFSFAIPLIEKLQGGLQERKRGRAPQVLVLAPTRELANQVSKDFSDITKKLSVACFYGGTPYGGQIERMRSGIDILVGTPGRIKDHLQNGKLDLTKLKHVVLDEVDQMLDMGFADQVEEILCVAYKKDSEDNPQTLLFSATCPHWVFNVAKKYMKSTYEQVDLIGKKTQKAAITVEHLAIKCHWTERAAVIGDVIRVYSGHQGRTIIFCETKKDAQELSQNTCIKQDAQSLHGDIPQKQREITLKGFRNGNFGVLVATNVAARGLDIPEVDLVVQSCPPKDVESYIHRSGRTGRAGRTGVCICFYQNKEEYQLAQVEQKAGIKFKRIGVPSATEIIKASSKDAIRLLDSVPPTAISHFKQSAEKLIEEKGAVEALAAALAHISGATSVDQRSLINSQAGFVTMILRCSIEMPNISYAWKELKEQLGESIDAKVKGMVFLKGKLGVCFDVRTEAVTEIQEKWHDSRRWQLTVATEQPELEGPPDGYRGRMGQRDGSRGAFRGQRGGSRNFRGQGQRGGSRNFRGQRPGGGNRGQKRSFSKAFGQ
- binding [5]: binds

B5: RBM17 (protein, UniProt Q96I25 1-401)
chain: MSLYDDLGVETSDSKTEGWSKNFKLLQSQLQVKKAALTQAKSQRTKQSTVLAPVIDLKRGGSSDDRQIVDTPPHVAAGLKDPVPSGFSAGEVLIPLADEYDPMFPNDYEKVVKRQREERQRQRELERQKEIEEREKRRKDRHEASGFARRPDPDSDEDEDYERERRKRSMGGAAIAPPTSLVEKDKELPRDFPYEEDSRPRSQSSKAAIPPPVYEEQDRPRSPTGPSNSFLANMGGTVAHKIMQKYGFREGQGLGKHEQGLSTALSVEKTSKRGGKIIVGDATEKDASKKSDSNPLTEILKCPTKVVLLRNMVGAGEVDEDLEVETKEECEKYGKVGKCVIFEIPGAPDDEAVRIFLEFERVESAIKAVVDLNGRYFGGRVVKACFYNLDKFRVLDLAEQV
- binding [1]: binds

B6: ASS1 (enzyme, UniProt P00966 1-412)
chain: MSSKGSVVLAYSGGLDTSCILVWLKEQGYDVIAYLANIGQKEDFEEARKKALKLGAKKVFIEDVSREFVEEFIWPAIQSSALYEDRYLLGTSLARPCIARKQVEIAQREGAKYVSHGATGKGNDQVRFELSCYSLAPQIKVIAPWRMPEFYNRFKGRNDLMEYAKQHGIPIPVTPKNPWSMDENLMHISYEAGILENPKNQAPPGLYTKTQDPAKAPNTPDILEIEFKKGVPVKVTNVKDGTTHQTSLELFMYLNEVAGKHGVGRIDIVENRFIGMKSRGIYETPAGTILYHAHLDIEAFTMDREVRKIKQGLGLKFAELVYTGFWHSPECEFVRHCIAKSQERVEGKVQVSVLKGQVYILGRESPLSLYNEELVSMNVQGDYEPTDATGFININSLRLKEYHRLQSKVTAK
- binding [1]: binds
